Data on one substance can be found in article PMC5341947.

The chains behind the UniProt entries cited, without tags or fusion partners. Where a name states a change or a piece, a line headed by the entry shows the natural chain unless it says otherwise. Residues count along the entry.
UniProt Q13490: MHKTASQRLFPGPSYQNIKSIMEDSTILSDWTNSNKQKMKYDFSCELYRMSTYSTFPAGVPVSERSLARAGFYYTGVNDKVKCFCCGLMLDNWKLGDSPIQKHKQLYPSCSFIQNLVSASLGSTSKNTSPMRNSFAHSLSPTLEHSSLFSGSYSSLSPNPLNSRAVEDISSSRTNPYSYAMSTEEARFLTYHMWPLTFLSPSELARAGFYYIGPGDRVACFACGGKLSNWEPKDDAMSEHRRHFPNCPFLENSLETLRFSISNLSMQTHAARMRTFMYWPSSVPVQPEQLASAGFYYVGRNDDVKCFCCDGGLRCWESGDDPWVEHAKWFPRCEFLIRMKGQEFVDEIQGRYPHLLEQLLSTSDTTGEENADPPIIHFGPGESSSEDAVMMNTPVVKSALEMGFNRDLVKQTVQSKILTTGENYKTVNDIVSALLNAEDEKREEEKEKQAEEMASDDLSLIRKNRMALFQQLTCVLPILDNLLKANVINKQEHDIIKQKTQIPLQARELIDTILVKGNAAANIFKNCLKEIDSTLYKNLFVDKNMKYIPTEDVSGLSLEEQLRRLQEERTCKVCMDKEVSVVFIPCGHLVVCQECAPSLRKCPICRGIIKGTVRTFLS
UniProt Q9UGM3, residues 20-2413: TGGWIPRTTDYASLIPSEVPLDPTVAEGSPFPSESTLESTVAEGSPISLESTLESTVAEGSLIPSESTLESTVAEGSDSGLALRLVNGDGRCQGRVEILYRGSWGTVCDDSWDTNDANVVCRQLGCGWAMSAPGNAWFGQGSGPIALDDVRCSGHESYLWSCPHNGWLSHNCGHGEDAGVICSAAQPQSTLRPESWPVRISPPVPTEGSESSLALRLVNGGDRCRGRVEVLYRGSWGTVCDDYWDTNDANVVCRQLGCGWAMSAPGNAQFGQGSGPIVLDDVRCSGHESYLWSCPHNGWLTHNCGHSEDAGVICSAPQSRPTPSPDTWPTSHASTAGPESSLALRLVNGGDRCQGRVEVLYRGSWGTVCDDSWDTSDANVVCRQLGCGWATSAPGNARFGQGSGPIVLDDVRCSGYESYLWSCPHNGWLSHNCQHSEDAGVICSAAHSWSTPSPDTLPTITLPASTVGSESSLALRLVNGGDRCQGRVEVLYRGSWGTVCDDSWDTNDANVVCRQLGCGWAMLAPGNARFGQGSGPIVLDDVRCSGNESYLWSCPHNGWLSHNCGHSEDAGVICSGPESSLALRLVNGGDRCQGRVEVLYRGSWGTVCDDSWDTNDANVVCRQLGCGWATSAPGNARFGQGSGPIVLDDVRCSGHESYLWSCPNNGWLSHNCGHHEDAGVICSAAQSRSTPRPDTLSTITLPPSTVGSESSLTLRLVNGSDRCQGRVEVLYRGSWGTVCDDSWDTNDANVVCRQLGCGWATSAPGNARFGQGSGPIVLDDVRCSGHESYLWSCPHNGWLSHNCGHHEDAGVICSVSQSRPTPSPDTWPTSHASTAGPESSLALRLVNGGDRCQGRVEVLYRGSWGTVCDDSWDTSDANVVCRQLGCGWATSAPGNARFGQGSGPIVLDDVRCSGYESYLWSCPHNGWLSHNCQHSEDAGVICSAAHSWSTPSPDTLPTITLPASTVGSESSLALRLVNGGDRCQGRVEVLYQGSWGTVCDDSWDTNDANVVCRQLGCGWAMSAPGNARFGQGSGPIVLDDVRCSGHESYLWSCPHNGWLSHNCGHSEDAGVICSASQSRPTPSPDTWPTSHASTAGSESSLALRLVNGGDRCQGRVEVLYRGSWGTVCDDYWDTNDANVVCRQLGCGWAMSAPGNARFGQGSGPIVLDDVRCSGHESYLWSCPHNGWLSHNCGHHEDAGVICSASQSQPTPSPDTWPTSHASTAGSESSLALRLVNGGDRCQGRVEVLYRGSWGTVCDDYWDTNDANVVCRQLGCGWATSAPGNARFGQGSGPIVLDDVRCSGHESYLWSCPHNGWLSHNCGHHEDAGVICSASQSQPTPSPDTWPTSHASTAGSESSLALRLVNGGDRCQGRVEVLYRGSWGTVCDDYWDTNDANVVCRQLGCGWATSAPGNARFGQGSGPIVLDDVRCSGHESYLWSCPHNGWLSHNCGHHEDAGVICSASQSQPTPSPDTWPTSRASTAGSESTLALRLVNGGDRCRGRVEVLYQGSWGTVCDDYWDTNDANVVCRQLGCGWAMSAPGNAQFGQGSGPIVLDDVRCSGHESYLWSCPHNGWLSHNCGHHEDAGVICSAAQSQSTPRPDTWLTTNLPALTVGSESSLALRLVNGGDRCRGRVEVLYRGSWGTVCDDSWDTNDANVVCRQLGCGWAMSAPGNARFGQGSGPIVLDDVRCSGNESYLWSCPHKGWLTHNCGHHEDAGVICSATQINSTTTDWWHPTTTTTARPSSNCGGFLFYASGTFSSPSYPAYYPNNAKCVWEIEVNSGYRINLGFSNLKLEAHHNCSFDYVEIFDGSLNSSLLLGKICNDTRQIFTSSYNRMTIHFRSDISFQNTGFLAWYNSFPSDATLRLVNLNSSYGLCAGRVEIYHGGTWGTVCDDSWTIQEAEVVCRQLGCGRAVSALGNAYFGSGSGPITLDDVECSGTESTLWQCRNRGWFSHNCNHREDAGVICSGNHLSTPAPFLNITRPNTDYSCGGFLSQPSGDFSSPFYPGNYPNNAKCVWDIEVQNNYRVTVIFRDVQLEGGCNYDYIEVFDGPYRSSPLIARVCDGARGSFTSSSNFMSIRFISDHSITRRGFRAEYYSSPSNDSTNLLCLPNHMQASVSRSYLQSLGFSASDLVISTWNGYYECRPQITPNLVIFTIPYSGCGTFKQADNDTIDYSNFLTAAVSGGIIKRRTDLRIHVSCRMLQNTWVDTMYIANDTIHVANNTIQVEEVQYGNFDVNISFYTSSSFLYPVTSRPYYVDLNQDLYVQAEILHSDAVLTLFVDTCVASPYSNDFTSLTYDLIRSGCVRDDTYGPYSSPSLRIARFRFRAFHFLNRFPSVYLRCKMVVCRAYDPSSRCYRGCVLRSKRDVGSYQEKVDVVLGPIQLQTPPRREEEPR

These are yes or no findings as the source states them, for the method shown. In cells and extracts the contact can be indirect. Some binding calls cover weakened binding; strength is not graded here.

This assay concerns the target Baculoviral IAP repeat containing 2 (c-IAP1) (human (endogenous in GBC-SD)) (UniProt Q13490). Put plainly: co-IP; GBC-SD cell lysate in RIPA buffer; 1 ug antibody overnight, protein A agarose beads 1 h at 4 C, washed three times with RIPA; Western blot; IgG as negative control.

Consider “Deleted in malignant brain tumors 1 (DMBT1) (from UniProt Q9UGM3 20-2413)”, for which the binding entry is “binds”.
